Measurements as given in PubChem BioAssay AID1508600 (Functional Genomics Laboratory (NCATS/FGL), 2020).
Hit rate of the full screen: of about 53,000 sequences, about 3,700 (7%) were called active.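 The calls were made as follows: active = gene knockdowns whose robust z-score for IL-1 alpha signal is at least 2 or at most -2, so actives lie on both sides; inactive = the rest.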 The list shows a part of the results.

assay: Components of the Cytosolic LPS Sensing Pathway: Gene Identification via Genome-wide siRNA Screen; conditions: RAW264.7 macrophages, IL-1a HTRF, actives lie on both sides, screened at 100 nM (by protocol), cells primed 5 h with Pam3CSK4 first;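 also: robust z of the log signal after scaling to non-targeting control siRNA wells of the plate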
How it was run: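 Knockdown: 100 nM siRNA, 48h, RAW264.7. Stimulation: Pam3CSK4 5 h, then LipidA via TransIT-TKO 24 h. Output: supernatant IL-1a HTRF, negative-control-normalized, log robust z-score; viability by CellTiter-Glo.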

Sequence | z-score
GGAUGAUAUAGUAUCUACGTT against Pyurf | inactive: 1.39
GGUUGAAUUAUACACAAAGTT against Tmem202 | inactive: -8.3e-05
GCCAACAAUAUAAUUCAAGTT against Abca5 | inactive: 1.64
GCAUACGAUAUCACCAUAUTT against Dsg1a | inactive: 0.173
GGUAGAAGAAUUCAGUUUUTT against Smpd3 | inactive: 0.528
GCUCAGUCUCUUGGGUGGUTT against Cel | active: 2.27
GGCUUUCUCACAUAAGAGCTT against Zbtb22 | inactive: -1.58
GGGUAUUAUAAAAACCCAGTT against Noct | inactive: 0.57
GGCAACAAUAGUUCAGAAGTT against Rps6ka5 | inactive: 1.5
GCUAGCCAUGGUUACCCACTT against Slc39a3 | inactive: -0.818
GAUGCUGUAAUCUUGUGAATT against Lce1a1 | inactive: 1.14
CCUGUUAAUUGAUUACCUUTT against Pla2r1 | inactive: 1.03
CCUCGUUACAUCCUCCCUGTT against Pold1 | inactive: -0.142
CCUCCAAGAAGGAUUCCAGTT against Lmf2 | inactive: -1.34
CCAACUUAUCAACAUCCGGTT against Plekha6 | inactive: -0.0445
GGAAAAAGCAUAGAUAGGUTT against Amigo3 | inactive: -0.347
GGAGAAAAUAAACUCUCUCTT against Capns1 | inactive: 1.82
GGAAAAAUCCAAGAAGCAATT against Zc3h11a | inactive: -1.09
GCAUUUCUUUCUUGCCUUCTT against Olfr1276 | inactive: 0.128
GGCAACAUGAUGAUUAUAGTT against Olfr1220 | inactive: -0.359
GGCCAUCAAAUCUAUAUACTT against Sucnr1 | inactive: -0.216
GGAAGAGCUUCAUCAGCCATT against Acoxl | inactive: 0.0267

4 entries from above in another layout:

| Sequence | z-score |
| --- | --- |
| GCUCAGUCUCUUGGGUGGUTT against Cel | active: 2.27 |
| GGCUUUCUCACAUAAGAGCTT against Zbtb22 | inactive: -1.58 |
| GGGUAUUAUAAAAACCCAGTT against Noct | inactive: 0.57 |
| GGCAACAAUAGUUCAGAAGTT against Rps6ka5 | inactive: 1.5 |

Next part

Sequence | z-score
GGCUGAGUUUAUUUUUGAGTT against Heatr5a | inactive: -0.0804
GAUUUUGGGAAUAUAGUGCTT against Klra16 | inactive: 0.451
GGAGGUGUUUUAUAUGAACTT against Efcab7 | inactive: 0.957
GGCACUGAUAAGAAGUACCTT against Dnah1 | inactive: 0.772
GCUCAGAAAUCGGCUCAGATT against Ssbp2 | inactive: -1.66
GGUGGUUGAAAAGAAAACUTT against Hspa5 | inactive: -1.02
GCGAAUUGAAGGCUCGGGATT against Dnm2 | inactive: 0.164
GCUAUCACCACAACUACCATT against Cyp46a1 | inactive: -0.554
CCGUGUCCAACAUUCUCUCTT against Tas1r2 | inactive: -1.1
GCAGAUCAGAAGAAAUUUGTT against Jmy | inactive: 1.22
GCAGCAACAAGAAAUCAGCTT against Bpifa3 | inactive: 0.308
GGAGAAAAUGCAGUGUGAGTT against Llph | inactive: -0.673
CGAUUUAUUCUGCUAUUGGTT against Pla2g7 | inactive: 0.61
GCAUCCCUUCCGAGAAACATT against Bag6 | inactive: 0.916
GCAGGAAGUAAAAUCUCUUTT against Tmem183a | inactive: 0.707
GCGUAUAUAUACUUCACUGTT against Stxbp3 | inactive: -0.458
CCGUAAUCUGGUUGGAUUUTT against Ccdc87 | inactive: 1.92
GGAGCCACCACAACUAUAATT against F2rl2 | inactive: 0.394
GCAAAACAGUGUUCUAUUATT against Skap2 | inactive: 0.135
GGAUGCAUUCAUGAGUAUUTT against Ifng | inactive: 0.325
CCCAAGAAGUUUUAUUCUGTT against Zbbx | inactive: -0.221
GGGAUUUAACAACAUGUAATT against Slc20a1 | inactive: 1.54

Sequence | z-score
GGUGAACAUGCGCAUCAAATT against Ugt1a5 | inactive: 0.949
GGCAGAGAGAUGUUACAAGTT against Ccl8 | inactive: 0.408
CGUAUUGUUUCCUAGCACATT against Arhgef38 | active: 2.08
GGGAUUAAGUCACCUCUGUTT against Rab15 | inactive: -0.143
CCCUGAACGAAUAAUCGGCTT against Cbx3 | inactive: 0.512
GCCACUAAAUCCUGUUUCCTT against Ydjc | inactive: -0.0858
GGCUCUAUUCAAUGCUAUUTT against Gm5094 | inactive: 0.895
CCAUUAUUUUACGAAACCUTT against Rbm10 | inactive: -0.614
GGAACACACAGAGGUUUAUTT against Hacd1 | inactive: 1.87
GGGUGGUCAGUGGUCAAAATT against Chodl | inactive: 0.319
GGCCAAUGAAGACCCAGAATT against Pomgnt1 | inactive: -0.00901
GCUGAUCCUCUCCCUUCAUTT against Tas2r131 | inactive: -0.463
CCGAUUUUGCACCUCAGCUTT against Bphl | inactive: -1.73
GGUGUUUGAUCUUUUAAAGTT against Fanci | inactive: -0.715
GCUACUAAACAGGGUGUGATT against Gpsm3 | active: -2.42
GGAUAUACUGUGGAGGCUUTT against Gzmd | inactive: 1.2
CCUCUAUGCGUCCAAUAUUTT against Kdm6b | inactive: 0.07
GGAUAUUUUUUGGUGCUGATT against Ankrd49 | inactive: -0.224
GCUAAGUCGGAGCAGUUUUTT against Clba1 | active: 2.07
CCGAGAAACGAAUAAGUCATT against Rbmx | inactive: 0.498
GGCCUUAAUUAGCCUCUCUTT against Gm5111 | inactive: 1.85
GGUAACGAUGAGGUCAUCGTT against Atp6ap1 | inactive: -0.378

Sequence | z-score
GGAACUCAGUAACACCCAGTT against Fcamr | inactive: -0.47
GGCAAGAGCAAGAAAUGGCTT against Grk6 | inactive: -1.11
GGAACAAAUCCUGGAACUGTT against Zfp449 | inactive: 1.15
CCACUUUCCCAUUCAGGAATT against Gpr84 | inactive: 1.73
CCUAUAAUGCUGAAAUGGCTT against Olfr702 | inactive: 0.369
GGUAGUUCAGAUCUGAUUUTT against Svep1 | inactive: 0.599
GCAGUUGGUUCAAGUCAACTT against Psat1 | inactive: 0.886
GGCAACUUAAGUUUUACAGTT against Tmem170 | inactive: -0.898
CCAAAUGAGGCUACCACAATT against Socs7 | inactive: -0.0785
GAUUCUUACUUUGGUCUACTT against Olfr9 | inactive: 0.62
GCGGUGAUUUCGUCUAUUUTT against Atg14 | inactive: -0.2
GGCCGUGCCAUUCAAAGACTT against Aoah | inactive: -0.109
GGCAGAUAGUACUAAUGAATT against Mucl1 | inactive: -0.000457
GGCAAUCGAGAUUAUGCCATT against Itgav | inactive: -0.998
GGGCAAGAAGAGAAACUAATT against Krtcap2 | inactive: 0.319
GGUUUUUUUCCUGUGAAUGTT against Ipcef1 | inactive: 0.381
GGCACCACUGAUUUGAAUCTT against Arl15 | inactive: 0.131
CGAUGAGGGCAGAUACCUATT against Pthlh | inactive: 1.22
CCGUUCUCAGCAGUUACUGTT against Pbld1 | inactive: -0.216
GGAGCUUUCUCAGAGGUGUTT against Camk1g | inactive: -1.47
GGCCAUCUGUAAGAGAAGCTT against Ankrd61 | inactive: 0.657
GGUGAAGACCAUCUUGACCTT against Clcnkb | inactive: -1.74

Sequence | z-score
GGAGAAAAUCCAUCUUGAATT against Ces1f | inactive: -1.28
GCAACAAGUCUGGAGACAATT against Pebp1 | inactive: -0.595
GAACAUCAUCUCACACUCATT against Olfr874 | inactive: -0.000467
GGAGCAAGUAAAAGUAUCUTT against Fpr-rs6 | inactive: -0.162
CGGUAAAGUAGGGAAGAUGTT against Duox2 | inactive: -0.168
GCAAGAAAAACAUGAACUGTT against Klra17 | inactive: 1.26
CCAAAUUUCAUAGUUUGGGTT against Gripap1 | inactive: -0.04
GGAGAAAGUGAUUGACAUATT against Lpin2 | inactive: -0.0579
GCACGAGAAAAAUACUACGTT against Slc18a2 | inactive: 0.612
GCUCUGUUUUUAACCAUCCTT against Ccnt2 | inactive: 0.227
GGUAGUGCAACCAUCACGUTT against Pcdhb14 | inactive: -0.931
GGAGAAUCCAUUCAACUCUTT against Aoah | inactive: -0.156
GCAGAGCUUCUGCUCUUCUTT against Olfr527 | inactive: -0.874
GGUACAGAAACAGUUAGUUTT against Olfr432 | inactive: 0.328
GGGUGCCUAGCAGAUGAACTT against Sp110 | inactive: -0.912
GGUUUUUAAGGGAAGGCCCTT against Ntmt1 | inactive: 0.284
GGACCAUGAAGAGGAUCCUTT against Gjc1 | inactive: -0.406
GCCCUAUCUCAAGUCACUATT against Entpd3 | inactive: 0.269
GCACAAGCGAUGGGUUAACTT against Fkbp1a | inactive: -0.708

Laid out differently: results already given.
GCAAGAAAAACAUGAACUGTT against Klra17
  z-score: inactive: 1.26
GGGUGCCUAGCAGAUGAACTT against Sp110
  z-score: inactive: -0.912
